Measured values published in CN114920842A.
These are yes or no findings as the source states them, for the method shown. Some binding calls cover weakened binding; strength is not graded here.

B1: 抗体亚型为IgG1(N297A)的抗体HLPV-P03 (antibody, V domains shown, not shown: a dimerising Fc or GST)
VH: QVQLVQSGAEVKKPGASVKVSCKASGYTFEDYYMYWVRQAPGQGLEWIGEVNPTQGDVNFNEMFKSRVTMTVDTSTSTAYMELSSLRSEDTAVYYCTSIFYWGQGTLVTVSS
VL: DIVMTQSPSSLSASVGDRVTITCKASQDIKYQLSWYQQKPGKAPKTLIYYATFLADGVPSRFSGSGSGQEFTLTISSLQPEDFATYYCVQHDDRPFTFGQGTKLEIK
B2: 抗体亚型为IgG1(N297A)的抗体HLPV-P05 (antibody, V domains shown, not shown: a dimerising Fc or GST)
VH: QVQLVQSGAEVKKPGASVKVSCKASGYTFTDYYMYWVRQAPGQGLEWIGEINPTQGDVNFNEMFKSRVTMTVDTSTSTAYMELSSLRSEDTAVYYCTSIFYWGQGTLVTVSS
VL: DIVMTQSPSSLSASVGDRVTITCKASQDIKYQLTWYQQKPGKAPKTLIYYATDLADGVPSRFSGSGSGQEFTLTISSLQPEDFATYYCVQHDNRPFTFGQGTKLEIK
B3: 抗体亚型为IgG1(N297A)的抗体HLPV-P08 (antibody, V domains shown, not shown: a dimerising Fc or GST)
VH: QVQLVQSGAEVKKPGASVKVSCKASGYTFTDYYMYWVRQAPGQGLEWIGEINPTQGDVNFNEMFKSRVTMTVDTSTSTAYMELSSLRSEDTAVYYCTTIFYWGQGTLVTVSS
VL: DIVMTQSPSSLSASVGDRVTITCKASQDIKYQLTWYQQKPGKAPKTLIYYATDLADGVPSRFSGSGSGQEFTLTISSLQPEDFATYYCVSHDDRPFTFGQGTKLEIK
B4: 抗体亚型为IgG1(N297A)的抗体HLPV-P09 (antibody, V domains shown, not shown: a dimerising Fc or GST)
VH: QVQLVQSGAEVKKPGASVKVSCKASGYTFTDYYMYWVRQAPGQGLEWIGEINPTQGDVNFNEMFKSRVTMTVDTSTSTAYMELSSLRSEDTAVYYCTTIFYWGQGTLVTVSS
VL: DIVMTQSPSSLSASVGDRVTITCKASQDIGYQLSWYQQKPGKAPKTLIYYATDLADGVPSRFSGSGSGQEFTLTISSLQPEDFATYYCVQHYDRPFTFGQGTKLEIK
B5: 抗体亚型为IgG1(N297A)的抗体HLPV-P10 (antibody, V domains shown, not shown: a dimerising Fc or GST)
VH: QVQLVQSGAEVKKPGASVKVSCKASGYTFTDYYMYWVRQAPGQGLEWIGEINPTQGDVNFNEMFKSRVTMTVDTSTSTAYMELSSLRSEDTAVYYCTSIFYWGQGTLVTVSS
VL: DIVMTQSPSSLSASVGDRVTITCKASQDIKYQLTWYQQKPGKAPKTLIYYATDLADGVPSRFSGSGSGQEFTLTISSLQPEDFATYYCVQHSDRPFTFGQGTKLEIK
B6: 抗体亚型为IgG1(N297A)的抗体HLPV-P11 (antibody, V domains shown, not shown: a dimerising Fc or GST)
VH: QVQLVQSGAEVKKPGASVKVSCKASGYTFTDYYMYWVRQAPGQGLEWIGEINPTQGDVNFNEMFKSRVTMTVDTSTSTAYMELSSLRSEDTAVYYCTTIFYWGQGTLVTVSS
VL: DIVMTQSPSSLSASVGDRVTITCKASQDIKYQLSWYQQKPGKAPKTLIYYATDLADGVPSRFSGSGSGQEFTLTISSLQPEDFATYYCVQHDDRPFSFGQGTKLEIK
B7: 抗体亚型为IgG1(N297A)的抗体HLPV-P14 (antibody, V domains shown, not shown: a dimerising Fc or GST)
VH: QVQLVQSGAEVKKPGASVKVSCKASGYTFTNYYMYWVRQAPGQGLEWIGEINPTSGDVNFNEMFKSRVTMTVDTSTSTAYMELSSLRSEDTAVYYCTSIFYWGQGTLVTVSS
VL: DIVMTQSPSSLSASVGDRVTITCKASQDIKYQLSWYQQKPGKAPKTLIYYAGDLADGVPSRFSGSGSGQEFTLTISSLQPEDFATYYCVQHDDRPFTFGQGTKLEIK
B8: 抗体亚型为IgG4(S228P)的抗体HLPV-P03 (antibody, V domains shown, not shown: a dimerising Fc or GST)
VH: QVQLVQSGAEVKKPGASVKVSCKASGYTFEDYYMYWVRQAPGQGLEWIGEVNPTQGDVNFNEMFKSRVTMTVDTSTSTAYMELSSLRSEDTAVYYCTSIFYWGQGTLVTVSS
VL: DIVMTQSPSSLSASVGDRVTITCKASQDIKYQLSWYQQKPGKAPKTLIYYATFLADGVPSRFSGSGSGQEFTLTISSLQPEDFATYYCVQHDDRPFTFGQGTKLEIK
B9: 抗体亚型为IgG4(S228P)的抗体HLPV-P05 (antibody, V domains shown, not shown: a dimerising Fc or GST)
VH: QVQLVQSGAEVKKPGASVKVSCKASGYTFTDYYMYWVRQAPGQGLEWIGEINPTQGDVNFNEMFKSRVTMTVDTSTSTAYMELSSLRSEDTAVYYCTSIFYWGQGTLVTVSS
VL: DIVMTQSPSSLSASVGDRVTITCKASQDIKYQLTWYQQKPGKAPKTLIYYATDLADGVPSRFSGSGSGQEFTLTISSLQPEDFATYYCVQHDNRPFTFGQGTKLEIK
B10: 抗体亚型为IgG4(S228P)的抗体HLPV-P08 (antibody, V domains shown, not shown: a dimerising Fc or GST)
VH: QVQLVQSGAEVKKPGASVKVSCKASGYTFTDYYMYWVRQAPGQGLEWIGEINPTQGDVNFNEMFKSRVTMTVDTSTSTAYMELSSLRSEDTAVYYCTTIFYWGQGTLVTVSS
VL: DIVMTQSPSSLSASVGDRVTITCKASQDIKYQLTWYQQKPGKAPKTLIYYATDLADGVPSRFSGSGSGQEFTLTISSLQPEDFATYYCVSHDDRPFTFGQGTKLEIK
B11: 抗体亚型为IgG4(S228P)的抗体HLPV-P09 (antibody, V domains shown, not shown: a dimerising Fc or GST)
VH: QVQLVQSGAEVKKPGASVKVSCKASGYTFTDYYMYWVRQAPGQGLEWIGEINPTQGDVNFNEMFKSRVTMTVDTSTSTAYMELSSLRSEDTAVYYCTTIFYWGQGTLVTVSS
VL: DIVMTQSPSSLSASVGDRVTITCKASQDIGYQLSWYQQKPGKAPKTLIYYATDLADGVPSRFSGSGSGQEFTLTISSLQPEDFATYYCVQHYDRPFTFGQGTKLEIK
B12: 抗体亚型为IgG4(S228P)的抗体HLPV-P10 (antibody, V domains shown, not shown: a dimerising Fc or GST)
VH: QVQLVQSGAEVKKPGASVKVSCKASGYTFTDYYMYWVRQAPGQGLEWIGEINPTQGDVNFNEMFKSRVTMTVDTSTSTAYMELSSLRSEDTAVYYCTSIFYWGQGTLVTVSS
VL: DIVMTQSPSSLSASVGDRVTITCKASQDIKYQLTWYQQKPGKAPKTLIYYATDLADGVPSRFSGSGSGQEFTLTISSLQPEDFATYYCVQHSDRPFTFGQGTKLEIK
B13: 抗体亚型为IgG4(S228P)的抗体HLPV-P11 (antibody, V domains shown, not shown: a dimerising Fc or GST)
VH: QVQLVQSGAEVKKPGASVKVSCKASGYTFTDYYMYWVRQAPGQGLEWIGEINPTQGDVNFNEMFKSRVTMTVDTSTSTAYMELSSLRSEDTAVYYCTTIFYWGQGTLVTVSS
VL: DIVMTQSPSSLSASVGDRVTITCKASQDIKYQLSWYQQKPGKAPKTLIYYATDLADGVPSRFSGSGSGQEFTLTISSLQPEDFATYYCVQHDDRPFSFGQGTKLEIK
B14: 抗体亚型为IgG4(S228P)的抗体HLPV-P14 (antibody, V domains shown, not shown: a dimerising Fc or GST)
VH: QVQLVQSGAEVKKPGASVKVSCKASGYTFTNYYMYWVRQAPGQGLEWIGEINPTSGDVNFNEMFKSRVTMTVDTSTSTAYMELSSLRSEDTAVYYCTSIFYWGQGTLVTVSS
VL: DIVMTQSPSSLSASVGDRVTITCKASQDIKYQLSWYQQKPGKAPKTLIYYAGDLADGVPSRFSGSGSGQEFTLTISSLQPEDFATYYCVQHDDRPFTFGQGTKLEIK

Target: T1, 重组人PLVAP/PV-1蛋白 (human) (UniProt Q9BX97)
T1 sequence (looked up): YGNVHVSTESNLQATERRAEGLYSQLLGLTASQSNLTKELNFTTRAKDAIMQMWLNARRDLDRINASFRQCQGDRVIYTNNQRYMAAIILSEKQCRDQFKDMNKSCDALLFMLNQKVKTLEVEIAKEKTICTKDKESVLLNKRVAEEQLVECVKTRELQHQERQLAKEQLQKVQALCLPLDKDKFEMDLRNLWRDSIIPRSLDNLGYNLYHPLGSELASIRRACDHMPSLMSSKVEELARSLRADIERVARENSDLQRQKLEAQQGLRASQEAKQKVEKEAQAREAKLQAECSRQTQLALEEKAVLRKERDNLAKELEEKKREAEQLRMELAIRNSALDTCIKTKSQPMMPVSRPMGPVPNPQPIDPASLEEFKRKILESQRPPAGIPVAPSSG
Experiment: SPR, Biacore T200, as in Example 2

Q: Which binding does the source give for B1 here?
A: binds

Q: For B2, which binding is on record?
A: binds

Q: With B3 as the binder, how does the binding read?
A: binds

Q: With B4 as the binder, how does the binding read?
A: binds

Q: Which binding does the source give for B5 here?
A: binds

Q: How did the binding turn out when B6 was run?
A: binds

Q: For B7, which binding is on record?
A: binds

Q: For B8, which binding is on record?
A: binds

Q: How did the binding turn out when B9 was run?
A: binds

Q: B10 was tested. Which binding did it give?
A: binds

Q: Which binding does the source give for B11 here?
A: binds

Q: Which binding does the source give for B12 here?
A: binds

Q: B13 was tested. Which binding did it give?
A: binds

Q: B14 was tested. Which binding did it give?
A: binds
